# Laboratory results published in US10822367B2, “Pharmaceutical composition for preventing or treating dementia and improving cognitive function, comprising glasswort extract” (priority 2017, dated 2020).
# System: forgetfulness animal models using scopolamine
# Assay: Passive avoidance test
# Format: in vivo, mice
# Conditions: scopolamine 1 mg/kg intraperitoneally
# Description: A test was conducted to investigate the improvement efficacy of cognitive ability and memory of the desalted Salicornia europaea extract (PM-EE) obtained in example 4-1 above and acanthoside B as an AChE inhibitory and neuroinflammation inhibiting substance isolated from PM-EE in examples 4-2 and 4-3. The learning ability effect was measured through a passive avoidance test in forgetfulness animal models using scopolamine. Mice were placed in the bright section with shining light and allowed to go over for 20 seconds. Subsequently, the guillotine door was opened and the mouse was allowed to enter into the dark section. […] The time from when the guillotine door was opened to when the mouse entered the dark section was measured. Once the mouse entered the dark section, the guillotine door was closed, and an electric shock of 0.25 mA flows through a grid bottom for 3 seconds, and the mouse remembered this electrical action. The present test was conducted 24 hours after the learning test. […] At 30 minutes after the administration of scopolamine, the mouse was allowed to go over for 10 seconds, and then the time taken for four feet of the mouse to enter the dark section after the opening of the guillotine door (transfer latency time, TLT: retention time) was measured up to 150 seconds. […]
structure (smiles),measurement,value
"CN1[C@@H]2C[C@@H](OC(=O)[C@H](CO)c3ccccc3)C[C@H]1[C@@H]1O[C@@H]12 [scopolamine, reference compound]",Retention time in groups administered with only scopolamine,significantly reduced
